Experimental data: ChEMBL document CHEMBL3232969, “Structure-based design and synthesis of tricyclic IAP (Inhibitors of Apoptosis Proteins) inhibitors” (Bioorg Med Chem Lett, 2014)

How the values were obtained:
[1] = Aqueous solubility of the compound; conditions: buffer
[2] = Lipophilicity, log D of the compound; conditions: octanol/water

## CN[C@@H](C)C(=O)N[C@H]1CCC[C@H]2C[C@H]3CCN(C(=O)OCc4ccccc4)C[C@H]3N2C1=O
[1]
  solubility: > 1000 µM
[2]
  logD: 1.1
